According to patent US12168651B1, “9-(6-flouro-2-hydroxypyridin-3-yl)-10-(2-hydroxyethyl)-3,6-diphenyl-3,4,6,7,9,10-hexahydroacridine1,8(2H,5H)-dione as an antimicrobial compound” (KING FAISAL UNIVERSITY, priority 2023, dated 2024):
For at least one compound, name, drawing or mass did not settle the structure.

Legend:
Format in all cases: cell-based
Escherichia coli = test: Antimicrobial screening by agar dilution, E. Coli
Procedure: (§1) The antibacterial properties of the synthesized compound (9-(6-flouro-2-hydroxypyridin-3-yl)-10-(2-hydroxyethyl)-3,6-diphenyl-3,4,6,7,9,10-hexahydroacridine1,8(2H,5H)-dione) were studied by the method of agar dilution. Test solutions of each compound was prepared in concentration of 1% using dimethylformamide as a solvent then they are diluted in physiological solution to obtain the final experimental dilutions 1:100, 1:200, 1:400, 1:800. The effect of these substances are compared with furacillin in a controllable study. The testing microbes used were gram positive bacteria Staphylococcus aureus, gram negative bacteria Pseudomonas aeruginosa and Escherichia coli and Candida albicans fungus. The experiments used for this survey were meat-pentonlu agar (EPA) for cultivation of bacteria and Saburo environment for the fungus. Each experiment used 1 mL of test solution on each plate […]. Two drops of emulsified with microbes feel were added. All experimental samples were taken from the agar after 10, 20, 40, 60 minutes in the environment on the basis of Patrk planted. The bacteria were cultivated at a temperature of 37° C. for 1 day and the mushroom was kept in a thermostat for […] at a temperature of 28° C. Then results were checked.

Pseudomonas aeruginosa = test: Antimicrobial screening by agar dilution, Ps. Aeroqonaza
Procedure: as §1

Candida albicans = test: Antimicrobial screening by agar dilution, Candida albicans
Procedure: as §1

Staphylococcus aureus = test: Antimicrobial screening by agar dilution, St. Aereus
Procedure: as §1

[1] = dilution rate 1:100, exposure time 10 min
[2] = dilution rate 1:100, exposure time 20 min
[3] = dilution rate 1:100, exposure time 40 min
[4] = dilution rate 1:100, exposure time 60 min
[5] = dilution rate 1:200, exposure time 10 min
[6] = dilution rate 1:200, exposure time 20 min
[7] = dilution rate 1:200, exposure time 40 min
[8] = dilution rate 1:200, exposure time 60 min
[9] = dilution rate 1:400, exposure time 10 min
[10] = dilution rate 1:400, exposure time 20 min
[11] = dilution rate 1:400, exposure time 40 min
[12] = dilution rate 1:400, exposure time 60 min
[13] = dilution rate 1:800, exposure time 10 min
[14] = dilution rate 1:800, exposure time 20 min
[15] = dilution rate 1:800, exposure time 40 min
[16] = dilution rate 1:800, exposure time 60 min

Structure (SMILES): NC(=O)N/N=C/c1ccc([N+](=O)[O-])o1 [Furacilin]
- antimicrobial activity (Escherichia coli; [1]): −
- antimicrobial activity (Escherichia coli; [2]): −
- antimicrobial activity (Escherichia coli; [3]): −
- antimicrobial activity (Escherichia coli; [4]): −
- antimicrobial activity (Escherichia coli; [5]): +
- antimicrobial activity (Escherichia coli; [6]): +
- antimicrobial activity (Escherichia coli; [7]): +
- antimicrobial activity (Escherichia coli; [8]): +
- antimicrobial activity (Escherichia coli; [9]): +
- antimicrobial activity (Escherichia coli; [10]): +
- antimicrobial activity (Escherichia coli; [11]): +
- antimicrobial activity (Escherichia coli; [12]): +
- antimicrobial activity (Escherichia coli; [13]): +
- antimicrobial activity (Escherichia coli; [14]): +
- antimicrobial activity (Escherichia coli; [15]): +
- antimicrobial activity (Escherichia coli; [16]): +
- antimicrobial activity (Pseudomonas aeruginosa; [1]): +
- antimicrobial activity (Pseudomonas aeruginosa; [2]): +
- antimicrobial activity (Pseudomonas aeruginosa; [3]): +
- antimicrobial activity (Pseudomonas aeruginosa; [4]): +
- antimicrobial activity (Pseudomonas aeruginosa; [5]): +
- antimicrobial activity (Pseudomonas aeruginosa; [6]): +
- antimicrobial activity (Pseudomonas aeruginosa; [7]): +
- antimicrobial activity (Pseudomonas aeruginosa; [8]): +
- antimicrobial activity (Pseudomonas aeruginosa; [9]): +
- antimicrobial activity (Pseudomonas aeruginosa; [10]): +
- antimicrobial activity (Pseudomonas aeruginosa; [11]): +
- antimicrobial activity (Pseudomonas aeruginosa; [12]): +
- antimicrobial activity (Pseudomonas aeruginosa; [13]): +
- antimicrobial activity (Pseudomonas aeruginosa; [14]): +
- antimicrobial activity (Pseudomonas aeruginosa; [15]): +
- antimicrobial activity (Pseudomonas aeruginosa; [16]): +
- antimicrobial activity (Candida albicans; [1]): −
- antimicrobial activity (Candida albicans; [2]): −
- antimicrobial activity (Candida albicans; [3]): +
- antimicrobial activity (Candida albicans; [4]): +
- antimicrobial activity (Candida albicans; [5]): +
- antimicrobial activity (Candida albicans; [6]): +
- antimicrobial activity (Candida albicans; [7]): +
- antimicrobial activity (Candida albicans; [8]): +
- antimicrobial activity (Candida albicans; [9]): +
- antimicrobial activity (Candida albicans; [10]): +
- antimicrobial activity (Candida albicans; [11]): +
- antimicrobial activity (Candida albicans; [12]): +
- antimicrobial activity (Candida albicans; [13]): +
- antimicrobial activity (Candida albicans; [14]): +
- antimicrobial activity (Candida albicans; [15]): +
- antimicrobial activity (Candida albicans; [16]): +
- antimicrobial activity (Staphylococcus aureus; [1]): −
- antimicrobial activity (Staphylococcus aureus; [2]): −
- antimicrobial activity (Staphylococcus aureus; [3]): −
- antimicrobial activity (Staphylococcus aureus; [4]): −
- antimicrobial activity (Staphylococcus aureus; [5]): +
- antimicrobial activity (Staphylococcus aureus; [6]): +
- antimicrobial activity (Staphylococcus aureus; [7]): +
- antimicrobial activity (Staphylococcus aureus; [8]): +
- antimicrobial activity (Staphylococcus aureus; [9]): +
- antimicrobial activity (Staphylococcus aureus; [10]): +
- antimicrobial activity (Staphylococcus aureus; [11]): +
- antimicrobial activity (Staphylococcus aureus; [12]): +
- antimicrobial activity (Staphylococcus aureus; [13]): +
- antimicrobial activity (Staphylococcus aureus; [14]): +
- antimicrobial activity (Staphylococcus aureus; [15]): +
- antimicrobial activity (Staphylococcus aureus; [16]): +
